Measured values as given in PubChem BioAssay AID2685 (National Center for Advancing Translational Sciences (NCATS), 2010).
The other results are listed elsewhere or left out. These are further read-outs of the screen, such as a control signal, another cell line or another target. No call is given for them. Compounds called inactive in the main read-out are mostly missing here. The note in brackets gives the kind of curve behind each potency; many fits are weak.

Assay: qHTS Assay for Lipid Storage Modulators in Drosophila S3 Cells;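 for cell number change: cells counted by Cell Tracker Red CMTPX staining in the red channel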
Settings: BODIPY lipid droplet fluorescence, 18-24 h; for cell number change: measured here: cell count max response, cells fed with added oleic acid
Outline: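 Laser-scanning cytometry quantifies lipid droplet accumulation (500–530 nm total intensity; droplet/cell object ratio) in oleic acid-fed (400 uM added) Drosophila S3 cells treated with a concentration series. 20 uM Triacsin C defined 100% inhibition.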

[1] = measured here: lipid fluorescence (Fed channel) AC50, cells fed with added oleic acid
[2] = measured here: cell number channel AC50, cells fed with added oleic acid

**Q.** Which cell number change does the source give for `Cc1ccc(C(=O)N/C(=C\c2cccnc2)C(=O)N2CCCC2)cc1` here?
**A.** -6.72%

**Q.** With `O=C(C1=C(O)C(=O)N(c2ccccc2)C1c1ccc([N+](=O)[O-])cc1)c1cccs1` (configuration not stated) as the compound, how does the cell number change read?
**A.** 0.993%

**Q.** Which cell number change does the source give for `O=C(NC12CC3CC(CC(C3)C1)C2)N1CCN(c2ccccc2)CC1` here?
**A.** 8.11%

**Q.** And the AC50 [1]?
**A.** 29.1 µM [falling, single point]

**Q.** Which cell number change does the source give for `NC(=O)CC(NC(=O)Cc1cccc2ccccc12)c1ccc(N2CCC(N3CCCCC3)CC2)c([N+](=O)[O-])c1` (configuration not stated) here?
**A.** -7.77%

**Q.** And the AC50 [1]?
**A.** 13 µM [falling, partial curve]

**Q.** For `CSC1=N/C(=C\c2cccnc2)C(=O)N1c1ccccc1`, which cell number change is on record?
**A.** 49.8%

**Q.** What about the AC50 [2] of the same compound?
**A.** 0.206 µM [rising, full curve]

**Q.** What about the AC50 [1] of the same compound?
**A.** 5.8 µM [rising, full curve, poor fit]

**Q.** With `Oc1c(C(c2ccccc2)N2CCN(Cc3ccccc3)CC2)sc2ncnn12` (configuration not stated) as the compound, how does the cell number change read?
**A.** 20.8%

**Q.** What about the AC50 [1] of the same compound?
**A.** 0.164 µM [falling, full curve, poor fit]

**Q.** For `NS(=O)(=O)c1cc2c(cc1Cl)NC(CC1CCCC1)NS2(=O)=O` (configuration not stated), which cell number change is on record?
**A.** 21.3%

**Q.** And the AC50 [1]?
**A.** 5.8 µM [falling, full curve]

**Q.** Which cell number change does the source give for `C/C(Cl)=C/Cn1c(SC(C)C)nc2c1c(=O)[nH]c(=O)n2C` here?
**A.** 10.4%

**Q.** What about the AC50 [1] of the same compound?
**A.** 29.1 µM [rising, single point]

**Q.** Which cell number change does the source give for `Cc1cc(=O)c2cc3nc(-c4cccnc4)oc3c(Br)c2o1` here?
**A.** -52.5%

**Q.** And the AC50 [2]?
**A.** 18.4 µM [falling, single point]

**Q.** And the AC50 [1]?
**A.** 3.66 µM [rising, single point]

**Q.** With `Nc1nc(NCC2CCCO2)nc(Nc2ccc(F)cc2)c1[N+](=O)[O-]` (configuration not stated) as the compound, how does the cell number change read?
**A.** 102%

**Q.** And the AC50 [1]?
**A.** 6.51 µM [rising, single point]

**Q.** Which cell number change does the source give for `Cn1c(Cc2ccccc2)nnc1SCC(=O)NC1CCCCC1` here?
**A.** -145%

**Q.** And the AC50 [2]?
**A.** 25.9 µM [falling, partial curve]

**Q.** And the AC50 [1]?
**A.** 23.1 µM [falling, partial curve]

**Q.** Which cell number change does the source give for `Cc1c(NS(=O)(=O)c2ccc(NC3CCCC3)c([N+](=O)[O-])c2)c(=O)n(-c2ccccc2)n1C` here?
**A.** 35.3%

**Q.** And the AC50 [2]?
**A.** 5.17 µM [rising, full curve, poor fit]

**Q.** What about the AC50 [1] of the same compound?
**A.** 29.1 µM [rising, single point]

**Q.** For `COc1ccccc1C(=O)OCC(=O)NC(=O)NCc1ccccc1`, which cell number change is on record?
**A.** 32.7%

**Q.** For `C/C=C(/C)C(=O)O[C@@H]1c2c(ccc3ccc(=O)oc23)O[C@@H]1C(C)(C)OC(=O)/C(C)=C\C`, which cell number change is on record?
**A.** -10.3%

**Q.** What about the AC50 [1] of the same compound?
**A.** 20.6 µM [falling, partial curve, poor fit]

**Q.** With `Cn1ncc(Cl)c1C(=O)NCc1ccc(Cl)cc1` as the compound, how does the cell number change read?
**A.** -5.89%

**Q.** And the AC50 [1]?
**A.** 25.9 µM [falling, single point]

**Q.** With `CCN(C(=O)CSc1nnc(-c2ccncc2)n1Cc1ccccc1)C1CCS(=O)(=O)C1` (configuration not stated) as the compound, how does the cell number change read?
**A.** 125%
